# No constants are given. Whether binding was seen depends on the method and setting. Binding seen in cells or lysates may run through a third protein. Tags and fused reporters may be left off the sequences shown.
# T1: Dit1-HA (S. cerevisiae) (UniProt P21623)
# T1 sequence: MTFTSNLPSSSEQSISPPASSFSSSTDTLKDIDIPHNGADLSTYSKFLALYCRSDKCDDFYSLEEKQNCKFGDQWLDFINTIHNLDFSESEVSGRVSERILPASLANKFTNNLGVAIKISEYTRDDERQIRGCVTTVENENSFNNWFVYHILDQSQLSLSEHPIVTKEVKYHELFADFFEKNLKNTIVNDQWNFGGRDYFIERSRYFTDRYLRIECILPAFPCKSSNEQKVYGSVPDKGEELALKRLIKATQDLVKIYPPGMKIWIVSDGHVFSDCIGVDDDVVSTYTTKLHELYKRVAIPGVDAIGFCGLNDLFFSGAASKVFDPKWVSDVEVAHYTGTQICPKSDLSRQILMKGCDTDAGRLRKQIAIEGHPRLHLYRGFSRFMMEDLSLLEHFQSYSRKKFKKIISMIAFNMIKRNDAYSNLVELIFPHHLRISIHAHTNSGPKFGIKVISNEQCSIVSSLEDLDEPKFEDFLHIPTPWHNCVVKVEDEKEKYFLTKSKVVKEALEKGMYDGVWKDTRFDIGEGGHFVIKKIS
# Target: T1, Dit1-HA (S. cerevisiae)
# Assay: co-IP; mouse anti-HA antibodies (1:200) with 200 uL of yeast lysate (PBS, proteinase inhibitor cocktail, 1% NP-40) 1 h at 4 °C, then protein A + G beads 2 h at 4 °C; beads washed five times with PBS; Western blotting
binder,measurement,value
"Dit2-FLAG (enzyme, UniProt P21595 1-489) MELLKLLCLILFLTLSYVAFAIIVPPLNFPKNIPTIPFYVVFLPVIFPIDQTELYDLYIRESMEKYGAVKFFFGSRWNILVSRSEYLAQIFKDEDTFAKSGNQKKIPYSALAAYTGDNVISAYGAVWRNYRNAVTNGLQHFDDAPIFKNAKILCTLIKNRLLEGQTSIPMGPLSQRMALDNISQVALGFDFGALTHEKNAFHEHLIRIKKQIFHPFFLTFPFLDVLPIPSRKKAFKDVVSFRELLVKRVQDELVNNYKFEQTTFAASDLIRAHNNEIIDYKQLTDNIVIILVAGHENPQLLFNSSLYLLAKYSNEWQEKLRKEVNGITDPKGLADLPLLNAFLFEVVRMYPPLSTIINRCTTKTCKLGAEIVIPKGVYVGYNNFGTSHDPKTWGTTADDFKPERWGSDIETIRKNWRMAKNRCAVTGFHGGRRACLGEKLALTEMRISLAEMLKQFRWSLDPEWEEKLTPAGPLCPLNLKLKFNENIME",binding,no binding
